Data as given in PubChem BioAssay AID1259254 (NCATS, 2017)
In all, the deposit lists about 59,000 reagents; this is an unselected part. About 1,550 of them (2.6%) were called active. 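G2 share is only a proxy for re-replication; each gene was hit by three separate siRNAs, and active genes were retested.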 The numbers tell different reagents against one gene apart. Further read-outs or replicates are left out here. Not given: the amount of reagent.

Assay: 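Genome-wide screen for genes that prevent DNA re-replication in cancer cells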 (primary screen)
System: human HCT116 colorectal cancer cells
Knock-down reagent: single siRNA against human genes
Duration: 3 days
Read-out: 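Imaged Hoechst DNA stain sorts each cell into a cycle phase by DNA amount; per plate, G2 fraction set to 0% for non-targeting and 100% for GMNN siRNA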
Direction: G2 robust z-score: higher = more G2 cells, more excess DNA replication
Active means: 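Active siRNAs have a G2 robust z of 5 or more median absolute deviations over the median, which in these data means about 38% or higher of GMNN control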

LINC02687 #1
- G2 robust z-score: 0.235
- call: inactive

LINC02687 #2
- G2 robust z-score: 0.793
- call: inactive

LINC02687 #3
- G2 robust z-score: -1.12
- call: inactive

KRTAP5-9 #1
- G2 robust z-score: -0.621
- call: inactive

KRTAP5-9 #2
- G2 robust z-score: -0.721
- call: inactive

KRTAP5-9 #3
- G2 robust z-score: 1.1
- call: inactive

GRPEL2 #1
- G2 robust z-score: -0.324
- call: inactive

GRPEL2 #2
- G2 robust z-score: 0.975
- call: inactive

GRPEL2 #3
- G2 robust z-score: -0.411
- call: inactive

AIDA #1
- G2 robust z-score: 0.0923
- call: inactive

AIDA #2
- G2 robust z-score: -0.837
- call: inactive

AIDA #3
- G2 robust z-score: -0.825
- call: inactive

TASOR2 #1
- G2 robust z-score: -0.935
- call: inactive

TASOR2 #2
- G2 robust z-score: 0.253
- call: inactive

TASOR2 #3
- G2 robust z-score: -0.64
- call: inactive

ZNF479 #1
- G2 robust z-score: 1.09
- call: inactive

ZNF479 #2
- G2 robust z-score: 0.775
- call: inactive

ZNF479 #3
- G2 robust z-score: -0.517
- call: inactive

Sorted by “G2 robust z-score” (high to low): some entries from above
TASOR2 #2
- G2 robust z-score: 0.253
- call: inactive

TASOR2 #3
- G2 robust z-score: -0.64
- call: inactive
